In the supplement of paper PMC12595434, “Development of retinoid nuclear receptor pathway antagonists through targeting aldehyde dehydrogenase 1A3” (iScience, 2025):
This is one part of the list. Single values of this set are uncertain.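 Tm was set to 64 °C where no melting was found, and many curves are irregular.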

By UniProt entry, the sequences of proteins in these tests, tags left out. Where a name states a change or a piece, a line headed by the entry shows the natural chain unless it says otherwise.
UniProt O94868: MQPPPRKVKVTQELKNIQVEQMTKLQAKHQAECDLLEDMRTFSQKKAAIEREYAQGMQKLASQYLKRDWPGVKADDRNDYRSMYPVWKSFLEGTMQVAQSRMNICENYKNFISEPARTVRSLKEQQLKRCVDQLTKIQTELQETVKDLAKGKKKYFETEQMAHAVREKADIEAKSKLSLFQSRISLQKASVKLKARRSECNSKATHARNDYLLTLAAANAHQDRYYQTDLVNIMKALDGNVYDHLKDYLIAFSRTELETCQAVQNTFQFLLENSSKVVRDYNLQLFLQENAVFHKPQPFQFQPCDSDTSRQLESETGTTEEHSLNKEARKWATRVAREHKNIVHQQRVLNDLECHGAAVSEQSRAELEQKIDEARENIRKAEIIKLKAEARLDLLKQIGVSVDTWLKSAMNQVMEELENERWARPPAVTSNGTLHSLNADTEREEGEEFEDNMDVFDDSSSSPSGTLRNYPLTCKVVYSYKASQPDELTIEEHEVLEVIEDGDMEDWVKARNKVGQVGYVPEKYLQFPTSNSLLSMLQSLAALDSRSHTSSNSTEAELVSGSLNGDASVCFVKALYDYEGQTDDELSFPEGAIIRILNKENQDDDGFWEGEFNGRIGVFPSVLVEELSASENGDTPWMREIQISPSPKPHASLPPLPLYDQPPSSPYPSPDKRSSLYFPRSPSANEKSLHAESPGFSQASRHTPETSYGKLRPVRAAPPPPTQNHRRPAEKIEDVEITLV
UniProt O94766: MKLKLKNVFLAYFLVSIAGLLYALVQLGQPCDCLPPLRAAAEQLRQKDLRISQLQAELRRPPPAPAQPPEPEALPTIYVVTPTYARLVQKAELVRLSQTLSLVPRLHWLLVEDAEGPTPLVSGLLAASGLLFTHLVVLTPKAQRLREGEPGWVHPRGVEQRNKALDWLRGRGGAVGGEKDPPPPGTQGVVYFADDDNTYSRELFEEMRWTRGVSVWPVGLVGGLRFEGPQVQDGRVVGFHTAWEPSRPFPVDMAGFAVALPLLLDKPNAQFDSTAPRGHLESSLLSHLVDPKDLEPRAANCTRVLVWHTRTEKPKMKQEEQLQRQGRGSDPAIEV
UniProt O95140: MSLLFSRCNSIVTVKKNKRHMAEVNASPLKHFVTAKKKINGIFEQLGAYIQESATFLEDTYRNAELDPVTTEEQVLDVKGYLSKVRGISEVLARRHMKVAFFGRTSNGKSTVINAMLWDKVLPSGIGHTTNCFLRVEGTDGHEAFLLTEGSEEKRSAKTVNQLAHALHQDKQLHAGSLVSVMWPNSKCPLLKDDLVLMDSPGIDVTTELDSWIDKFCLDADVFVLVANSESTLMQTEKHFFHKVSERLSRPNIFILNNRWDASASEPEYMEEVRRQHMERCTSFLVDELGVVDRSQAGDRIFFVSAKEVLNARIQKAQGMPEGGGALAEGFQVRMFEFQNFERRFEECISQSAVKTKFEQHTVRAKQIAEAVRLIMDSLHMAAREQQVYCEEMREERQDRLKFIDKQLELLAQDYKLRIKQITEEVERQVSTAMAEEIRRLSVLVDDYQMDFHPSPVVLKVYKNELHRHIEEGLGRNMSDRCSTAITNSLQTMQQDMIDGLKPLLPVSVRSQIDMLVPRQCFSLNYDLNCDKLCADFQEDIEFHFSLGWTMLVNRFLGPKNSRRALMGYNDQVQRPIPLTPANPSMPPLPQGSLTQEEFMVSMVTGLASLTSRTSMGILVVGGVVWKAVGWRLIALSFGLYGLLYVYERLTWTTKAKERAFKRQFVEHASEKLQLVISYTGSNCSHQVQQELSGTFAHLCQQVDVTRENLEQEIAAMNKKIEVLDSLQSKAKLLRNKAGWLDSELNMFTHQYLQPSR
UniProt P04150: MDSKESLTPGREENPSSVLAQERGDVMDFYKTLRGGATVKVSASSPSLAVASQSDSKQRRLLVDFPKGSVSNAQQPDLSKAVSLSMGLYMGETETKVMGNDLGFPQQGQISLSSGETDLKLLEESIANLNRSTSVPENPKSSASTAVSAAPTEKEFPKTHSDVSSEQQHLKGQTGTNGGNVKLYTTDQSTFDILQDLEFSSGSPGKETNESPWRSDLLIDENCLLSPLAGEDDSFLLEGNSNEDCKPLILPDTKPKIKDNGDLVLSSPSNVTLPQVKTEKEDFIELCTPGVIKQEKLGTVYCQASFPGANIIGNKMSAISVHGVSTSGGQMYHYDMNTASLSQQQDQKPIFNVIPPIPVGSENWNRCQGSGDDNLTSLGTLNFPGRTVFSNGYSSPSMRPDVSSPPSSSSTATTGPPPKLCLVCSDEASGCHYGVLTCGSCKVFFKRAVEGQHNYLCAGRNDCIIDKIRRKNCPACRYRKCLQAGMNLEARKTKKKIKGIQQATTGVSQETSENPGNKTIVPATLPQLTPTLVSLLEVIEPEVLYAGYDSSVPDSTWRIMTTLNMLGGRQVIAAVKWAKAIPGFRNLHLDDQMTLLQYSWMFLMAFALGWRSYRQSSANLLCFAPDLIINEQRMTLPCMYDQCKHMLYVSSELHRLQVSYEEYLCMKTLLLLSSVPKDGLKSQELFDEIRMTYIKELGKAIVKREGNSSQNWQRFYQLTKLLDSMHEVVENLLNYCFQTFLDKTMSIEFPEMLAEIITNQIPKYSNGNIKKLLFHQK
UniProt O95239: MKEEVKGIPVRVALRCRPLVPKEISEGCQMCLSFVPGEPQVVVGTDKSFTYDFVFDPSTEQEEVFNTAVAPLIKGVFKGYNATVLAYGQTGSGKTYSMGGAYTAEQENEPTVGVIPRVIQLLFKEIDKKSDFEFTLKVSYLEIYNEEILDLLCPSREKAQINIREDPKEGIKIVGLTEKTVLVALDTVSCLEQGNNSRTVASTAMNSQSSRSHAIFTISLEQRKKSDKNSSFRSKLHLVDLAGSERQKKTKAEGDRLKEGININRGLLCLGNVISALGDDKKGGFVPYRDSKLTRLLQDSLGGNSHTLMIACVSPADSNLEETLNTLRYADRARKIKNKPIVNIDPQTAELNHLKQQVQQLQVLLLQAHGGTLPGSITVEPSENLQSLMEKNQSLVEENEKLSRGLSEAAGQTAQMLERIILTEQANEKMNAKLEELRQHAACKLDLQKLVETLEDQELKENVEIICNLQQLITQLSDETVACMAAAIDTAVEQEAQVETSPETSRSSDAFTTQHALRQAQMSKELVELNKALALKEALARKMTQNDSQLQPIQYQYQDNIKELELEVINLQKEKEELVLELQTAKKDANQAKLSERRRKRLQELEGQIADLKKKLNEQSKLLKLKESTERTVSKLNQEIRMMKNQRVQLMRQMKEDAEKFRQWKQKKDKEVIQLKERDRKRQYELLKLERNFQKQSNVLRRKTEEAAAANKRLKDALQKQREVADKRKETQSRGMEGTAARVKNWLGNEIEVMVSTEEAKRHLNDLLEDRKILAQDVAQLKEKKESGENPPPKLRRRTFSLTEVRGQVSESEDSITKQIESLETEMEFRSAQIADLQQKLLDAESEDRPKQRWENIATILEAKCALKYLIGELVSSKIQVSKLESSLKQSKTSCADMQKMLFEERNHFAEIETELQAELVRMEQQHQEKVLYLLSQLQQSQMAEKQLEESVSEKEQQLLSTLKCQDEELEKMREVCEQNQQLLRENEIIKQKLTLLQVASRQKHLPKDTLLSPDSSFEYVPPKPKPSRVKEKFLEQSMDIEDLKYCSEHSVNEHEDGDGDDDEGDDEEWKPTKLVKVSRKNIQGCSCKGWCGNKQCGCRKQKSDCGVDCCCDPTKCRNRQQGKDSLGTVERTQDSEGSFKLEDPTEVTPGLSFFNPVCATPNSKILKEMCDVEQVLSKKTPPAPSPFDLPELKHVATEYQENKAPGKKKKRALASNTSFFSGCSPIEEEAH
UniProt O94906: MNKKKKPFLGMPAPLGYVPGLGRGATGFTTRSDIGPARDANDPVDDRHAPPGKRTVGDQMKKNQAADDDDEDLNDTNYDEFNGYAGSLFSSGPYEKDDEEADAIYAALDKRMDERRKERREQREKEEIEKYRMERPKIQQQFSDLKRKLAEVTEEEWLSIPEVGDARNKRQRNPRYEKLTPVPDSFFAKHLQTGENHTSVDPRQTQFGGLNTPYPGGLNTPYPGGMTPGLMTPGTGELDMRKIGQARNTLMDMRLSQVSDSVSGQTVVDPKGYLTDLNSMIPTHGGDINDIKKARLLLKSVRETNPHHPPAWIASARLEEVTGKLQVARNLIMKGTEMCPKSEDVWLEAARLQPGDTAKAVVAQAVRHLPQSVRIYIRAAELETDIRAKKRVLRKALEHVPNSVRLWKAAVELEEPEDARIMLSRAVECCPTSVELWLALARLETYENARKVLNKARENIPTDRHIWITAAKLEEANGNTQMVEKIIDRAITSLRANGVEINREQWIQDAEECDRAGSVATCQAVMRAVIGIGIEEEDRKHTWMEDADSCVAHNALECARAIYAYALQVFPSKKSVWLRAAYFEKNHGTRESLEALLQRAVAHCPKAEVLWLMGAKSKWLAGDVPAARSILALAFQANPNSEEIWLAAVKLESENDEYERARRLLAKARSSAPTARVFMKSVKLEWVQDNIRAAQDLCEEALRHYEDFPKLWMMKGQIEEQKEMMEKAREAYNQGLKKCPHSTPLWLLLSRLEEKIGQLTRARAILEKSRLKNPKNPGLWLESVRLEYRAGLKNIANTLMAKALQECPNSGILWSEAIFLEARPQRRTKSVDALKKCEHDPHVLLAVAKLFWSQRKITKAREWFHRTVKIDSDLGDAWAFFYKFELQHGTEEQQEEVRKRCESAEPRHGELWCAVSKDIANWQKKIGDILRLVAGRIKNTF
UniProt P04075: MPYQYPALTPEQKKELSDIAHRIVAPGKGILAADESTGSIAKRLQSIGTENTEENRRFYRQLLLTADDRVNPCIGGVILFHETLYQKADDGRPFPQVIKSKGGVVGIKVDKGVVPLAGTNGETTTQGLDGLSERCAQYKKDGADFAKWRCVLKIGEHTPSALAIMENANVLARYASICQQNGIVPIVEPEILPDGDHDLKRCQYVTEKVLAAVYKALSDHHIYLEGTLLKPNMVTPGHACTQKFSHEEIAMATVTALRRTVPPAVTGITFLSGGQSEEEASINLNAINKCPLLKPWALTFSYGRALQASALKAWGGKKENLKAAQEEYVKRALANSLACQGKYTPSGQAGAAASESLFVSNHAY
UniProt O95394: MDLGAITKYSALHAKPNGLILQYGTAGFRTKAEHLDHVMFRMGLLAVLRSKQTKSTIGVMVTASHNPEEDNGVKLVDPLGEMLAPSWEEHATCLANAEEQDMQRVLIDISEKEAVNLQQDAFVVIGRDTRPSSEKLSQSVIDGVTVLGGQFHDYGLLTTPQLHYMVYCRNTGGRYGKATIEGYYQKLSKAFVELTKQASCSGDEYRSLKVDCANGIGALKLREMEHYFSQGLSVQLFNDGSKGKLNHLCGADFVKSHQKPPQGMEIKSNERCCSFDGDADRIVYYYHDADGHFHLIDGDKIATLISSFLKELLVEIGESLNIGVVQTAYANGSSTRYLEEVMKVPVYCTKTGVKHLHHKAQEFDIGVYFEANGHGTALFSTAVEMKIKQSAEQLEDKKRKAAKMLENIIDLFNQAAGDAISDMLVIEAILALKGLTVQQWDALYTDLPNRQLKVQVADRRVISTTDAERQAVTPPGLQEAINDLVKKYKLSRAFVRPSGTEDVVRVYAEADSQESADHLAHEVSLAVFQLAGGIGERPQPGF
UniProt O75947: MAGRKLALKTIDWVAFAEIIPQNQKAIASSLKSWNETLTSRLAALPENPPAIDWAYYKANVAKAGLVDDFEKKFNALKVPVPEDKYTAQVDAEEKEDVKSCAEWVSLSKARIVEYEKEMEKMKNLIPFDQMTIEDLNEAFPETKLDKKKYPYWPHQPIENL
UniProt O95793: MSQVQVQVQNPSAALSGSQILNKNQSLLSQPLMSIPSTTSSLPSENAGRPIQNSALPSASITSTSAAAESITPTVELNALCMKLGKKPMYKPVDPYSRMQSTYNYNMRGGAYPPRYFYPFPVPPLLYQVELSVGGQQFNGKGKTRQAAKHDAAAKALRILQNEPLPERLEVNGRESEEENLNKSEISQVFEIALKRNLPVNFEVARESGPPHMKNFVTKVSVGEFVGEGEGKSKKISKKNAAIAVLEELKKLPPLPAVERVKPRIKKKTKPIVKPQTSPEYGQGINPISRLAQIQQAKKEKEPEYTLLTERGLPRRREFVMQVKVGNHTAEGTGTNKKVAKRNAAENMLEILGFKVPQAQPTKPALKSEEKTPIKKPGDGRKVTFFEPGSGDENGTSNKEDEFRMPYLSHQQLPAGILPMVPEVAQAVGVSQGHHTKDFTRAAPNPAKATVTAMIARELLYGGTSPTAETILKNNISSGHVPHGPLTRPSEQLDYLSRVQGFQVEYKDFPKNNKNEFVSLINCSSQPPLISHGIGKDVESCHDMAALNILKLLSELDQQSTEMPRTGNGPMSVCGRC
UniProt P00441, whole entry: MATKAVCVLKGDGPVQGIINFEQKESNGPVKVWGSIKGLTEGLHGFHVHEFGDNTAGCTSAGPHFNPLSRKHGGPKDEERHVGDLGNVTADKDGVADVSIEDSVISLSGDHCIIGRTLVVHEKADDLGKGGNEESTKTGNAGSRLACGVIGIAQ

Compound: CCc1cnccc1C(=O)Nc1cc2c(cc1F)NC(=O)CC2
Experiment: melting temperature shift (DMSO Tm minus MBE1-treated Tm) in cellular thermal proteome profiling; higher = less thermal stabilization by MBE1 (negative = stabilized by MBE1)
Conditions: A375

| Target | melting temperature shift (MBE1 concentration: 100 nM) [°C] | melting temperature shift (MBE1 concentration: 1 uM) [°C] |
| --- | --- | --- |
| GAPDH (UniProt P04406) | -1.31 | -2.47 |
| PNP (UniProt P00491) | – | 0.2 |
| UniProt P04440 | – | -2.9 |
| UniProt P03915 | 0.0733 | 1.99 |
| FMNL1 (UniProt O95466) | 0.919 | 2.51 |
| PEX11B (UniProt O96011) | – | -1.79 |
| FCHSD2 (UniProt O94868) | – | 0.032 |
| CRYZL1 (UniProt O95825) | 0.406 | -0.52 |
| SNAP29 (UniProt O95721) | -8.97 | -3.35 |
| STBD1 (UniProt O95210) | -0.586 | -0.403 |
| TRUB2 (UniProt O95900) | -0.32 | 0.256 |
| CLPTM1 (UniProt O96005) | -0.952 | 0.255 |
| B3GAT3 (UniProt O94766) | -0.362 | 0.483 |
| SCAF4 (UniProt O95104) | -0.671 | -0.423 |
| NDUFA10 (UniProt O95299) | 0.605 | -0.0611 |
| FARS2 (UniProt O95363) | 0.475 | -0.409 |
| MFN2 (UniProt O95140) | 0.739 | 0 |
| CCNB2 (UniProt O95067) | -0.946 | 1.36 |
| NR3C1 (UniProt P04150) | -0.724 | -0.16 |
| UniProt O95785 | -0.379 | 0.0939 |
| GFPT2 (UniProt O94808) | -0.957 | 0.714 |
| UniProt O94804 | -0.347 | 0.179 |
| EPN2 (UniProt O95208) | -1.55 | -0.202 |
| KIF4A (UniProt O95239) | -0.237 | -0.41 |

| Target | melting temperature shift (MBE1 concentration: 100 nM) [°C] | melting temperature shift (MBE1 concentration: 1 uM) [°C] |
| --- | --- | --- |
| PHF14 (UniProt O94880) | 1.07 | 0.238 |
| BPNT1 (UniProt O95861) | -1.39 | -2.11 |
| ASL (UniProt P04424) | -0.653 | 0.195 |
| DDHD2 (UniProt O94830) | -0.463 | 1.77 |
| PRPF6 (UniProt O94906) | -0.0769 | -0.461 |
| TTC4 (UniProt O95801) | 0.898 | -0.0733 |
| NDUFC2 (UniProt O95298) | -0.592 | -0.201 |
| UniProt P00403 | -1.55 | 1.83 |
| ZBTB7A (UniProt O95365) | 0.208 | 2.69 |
| TK1 (UniProt P04183) | -0.952 | 2.63 |
| RB1 (UniProt P06400) | -0.812 | -0.0134 |
| IKBKAP (UniProt O95163) | 0.427 | 0.653 |
| UniProt O76054 | 0.0488 | 0.434 |
| NUDT3 (UniProt O95989) | -1.73 | -2.44 |
| ALDOA (UniProt P04075) | -2.35 | -1.25 |
| TRIO (UniProt O75962) | 0.132 | -0.56 |
| PGM3 (UniProt O95394) | 0.908 | 0.891 |
| ATP5H (UniProt O75947) | -0.574 | -0.366 |
| TRIM16 (UniProt O95361) | 3.87 | 2.8 |
| PARN (UniProt O95453) | 0.0988 | -0.499 |
| SEC31A (UniProt O94979) | 0.153 | -0.354 |
| UniProt O96028 | 0.0384 | 0.0192 |
| UniProt P01011 | -0.855 | 0.403 |
| CCNK (UniProt O75909) | -0.355 | 0.604 |

| Target | melting temperature shift (MBE1 concentration: 100 nM) [°C] | melting temperature shift (MBE1 concentration: 1 uM) [°C] |
| --- | --- | --- |
| UniProt P00846 | -0.226 | -0.74 |
| H6PD (UniProt O95479) | -1.52 | -1.33 |
| UniProt P03905 | -0.488 | 0.104 |
| UROD (UniProt P06132) | -1.69 | -1.17 |
| STAU1 (UniProt O95793) | -0.57 | 0.0122 |
| GLS (UniProt O94925) | -0.805 | -1.05 |
| DHRS3 (UniProt O75911) | -0.177 | 1.21 |
| UniProt O96017 | -0.452 | -0.775 |
| ACTL6A (UniProt O96019) | -0.845 | -0.34 |
| GLA (UniProt P06280) | -1.94 | -3.3 |
| FRYL (UniProt O94915) | -0.289 | 0.47 |
| SVIL (UniProt O95425) | -1.14 | -1.11 |
| SLC4A2 (UniProt P04920) | -0.657 | 0.854 |
| CNOT4 (UniProt O95628) | -0.241 | -0.101 |
| UniProt O95478 | -1.61 | -0.256 |
| SGPL1 (UniProt O95470) | -0.0671 | -0.104 |
| NRAS (UniProt P01111) | 2.8 | -1.54 |
| SOD1 (UniProt P00441) | -8.46 | -1.35 |
| NPM1 (UniProt P06748) | -0.41 | -1.97 |
| AP2A1 (UniProt O95782) | -0.6 | -0.269 |
| TOX4 (UniProt O94842) | -0.684 | 0.11 |
| UniProt P04066 | -2.39 | -0.165 |

Reformatted as labelled records: part of the list above
UniProt P00846
  melting temperature shift (MBE1 concentration: 100 nM) [°C]: -0.226
  melting temperature shift (MBE1 concentration: 1 uM) [°C]: -0.74
GLS (UniProt O94925)
  melting temperature shift (MBE1 concentration: 100 nM) [°C]: -0.805
  melting temperature shift (MBE1 concentration: 1 uM) [°C]: -1.05
DHRS3 (UniProt O75911)
  melting temperature shift (MBE1 concentration: 100 nM) [°C]: -0.177
  melting temperature shift (MBE1 concentration: 1 uM) [°C]: 1.21
UniProt O96017
  melting temperature shift (MBE1 concentration: 100 nM) [°C]: -0.452
  melting temperature shift (MBE1 concentration: 1 uM) [°C]: -0.775
